Measured data: PubChem BioAssay AID1259425 (University of Nebraska Medical Center, 2018)

- Screen: 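Seek colon cancer weak points whose silencing resembles KSR1 loss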 (primary screen)
- Cell system: HCT116 human colon cancer cells
- Reagent: siRNA pool against human genes, 50 nM siRNA
- Detection: 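mRNA of six signature genes measured together by branched-DNA assay after 50 nM siRNA pool, blank removed, divided by geometric mean of two housekeeping genes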
- Reading the numbers: BNIP3L mRNA: higher = more BNIP3L transcript after knockdown; NDRG1 mRNA: higher = more NDRG1 transcript after knockdown
This is one part, drawn at random, of about 14,000 reagents. Not all columns of the deposit are shown. No sequences are given here. Not stated in the record: the time to read-out.

For MAP4 (microtubule associated protein 4), how do the results read?
BNIP3L mRNA, set 1: 0.309; NDRG1 mRNA, set 1: 0.278

What is on record for NSF (N-ethylmaleimide sensitive factor, vesicle fusing ATPase)?
BNIP3L mRNA, set 1: 0.159; NDRG1 mRNA, set 1: 0.218

How did the screen score ABO?
BNIP3L mRNA, set 1: 0.108; NDRG1 mRNA, set 1: 0.264

What did the screen give for CDO1 (cysteine dioxygenase type 1)?
BNIP3L mRNA, set 1: 0.156; NDRG1 mRNA, set 1: 0.176

For RHBDF1 (rhomboid 5 homolog 1), what does the deposit list?
BNIP3L mRNA, set 1: 0.212; NDRG1 mRNA, set 1: 0.217

What did the screen give for NUBPL (NUBP iron-sulfur cluster assembly factor, mitochondrial)?
BNIP3L mRNA, set 1: 0.151; NDRG1 mRNA, set 1: 0.194

What is on record for NUP88 (nucleoporin 88)?
BNIP3L mRNA, set 1: 0.121; NDRG1 mRNA, set 1: 0.225

What is on record for ARAP3 (ArfGAP with RhoGAP domain, ankyrin repeat and PH domain 3)?
BNIP3L mRNA, set 1: 0.114; NDRG1 mRNA, set 1: 0.226

For ZNF343 (zinc finger protein 343), what was measured?
BNIP3L mRNA, set 1: 0.104; NDRG1 mRNA, set 1: 0.458

With ATP5F1B (ATP synthase F1 subunit beta), what does the deposit list?
BNIP3L mRNA, set 1: 0.321; NDRG1 mRNA, set 1: 0.544

Which result is listed for TMPRSS15 (transmembrane serine protease 15)?
BNIP3L mRNA, set 1: 0.0659; NDRG1 mRNA, set 1: 0.149

With UROD (uroporphyrinogen decarboxylase), what does the deposit list?
BNIP3L mRNA, set 1: 0.0882; NDRG1 mRNA, set 1: 0.164

Not a retest: entries from further up.
CDO1 (cysteine dioxygenase type 1): BNIP3L mRNA, set 1 = 0.156; NDRG1 mRNA, set 1 = 0.176
RHBDF1 (rhomboid 5 homolog 1): BNIP3L mRNA, set 1 = 0.212; NDRG1 mRNA, set 1 = 0.217
